Hit rate of the full screen: of about 1,200 compounds, about 290 (24%) were called active. About 3% were inconclusive and are not listed.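 Rule for the calls: active = compounds lowering cell viability signal with fitted half-maximal concentration at most ten times their highest tested concentration; inconclusive = flat fit with 30 to 70% signal loss, or poor fit; inactive = the rest.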 Only a part is listed here, and it is no random draw. Entries with a potency or affinity are not part of this list.

This experiment is described as follows: cytotoxicity in HEK293T cells – cell-based, CellTiter-Glo luminescence, cherry-picks, cytotoxicity control for LMP1 NF-kB inhibitor project, dose response (AID 504861). To be noted: HEK293T viability, CellTiter-Glo ATP luminescence, 48 h; at 26 µM (top of the series).
With `CN1CCc2cc3c(cc2[C@H]1[C@@H]1OC(=O)c2c1ccc1c2OCO1)OCO3`, the activity change, negative = cytotoxicity is inactive: 9.64%.

On to `COC(=O)C1C2CC[C@@H](CC1OC(=O)c1ccccc1)N2` (stereo not given in full), for which the activity change, negative = cytotoxicity is inactive: 0.895%.

As for `NC(Cc1ccc(O)cc1)C(=O)NN=Cc1ccc(N(CCCl)CCCl)cc1` (stereo not given), the activity change, negative = cytotoxicity is inactive: 33.2%.

`CCN1C[C@]2(C)CC[C@H](O)[C@]34C1[C@H](C[C@H]23)[C@@]1(O)C[C@H](OC)[C@H]2C[C@@H]4[C@@H]1C2O` (stereo not given in full): the activity change, negative = cytotoxicity is inactive: 14.4%.

On to `O=[N+]([O-])c1ccc(CN2CC=C(c3ccccc3)CC2)cc1`, for which the activity change, negative = cytotoxicity is inactive: 0.043%.

For the molecule `COc1ccc(O)c2c(=O)c3c(OC)cc4c(c3oc12)C1C=COC1O4` (stereo not given), the activity change, negative = cytotoxicity was inactive: 8.89%.

As for `COc1c2c(cc3c1OCO3)CCN(C)C2`, the activity change, negative = cytotoxicity is inactive: -3.48%.

On to `CCn1c(O)c(C=Nc2ccc(N3CCOCC3)c(Br)c2)c(=O)n(CC)c1=S`, for which the activity change, negative = cytotoxicity is inactive: 12.2%.

For `CC(=O)c1c(C)n(C2CCCCC2)c2ccc(O)cc12`, the activity change, negative = cytotoxicity is inactive: 3.28%.

Consider `COC(=O)C1=C(c2ccc3ccccc3c2)C[C@@H]2CC[C@H]1N2C(=O)N1CCC(O)CC1`, for which the activity change, negative = cytotoxicity was inactive: -0.166%.

Consider `N#Cc1ncc(N=Cc2ccc(N(CCCl)CCCl)cc2)s1`, for which the activity change, negative = cytotoxicity is inactive: 11.9%.

`COC12C(COC(N)=O)C3=C(C(=O)C(C)=C(N)C3=O)N1CC1C2N1C` (stereo not given): the activity change, negative = cytotoxicity is inactive: -2.08%.

`CCOC(=O)CC(NC(=O)C(Cc1ccc(N(CCCl)CCCl)cc1)NC(C)=O)C(=O)OCC` (stereo not given): the activity change, negative = cytotoxicity was inactive: 3.33%.

Regarding `CC1(CCCc2ccc(N(CCCl)CCCl)cc2)NC(=O)NC1=O` (stereo not given), the activity change, negative = cytotoxicity was inactive: -0.088%.

With `CC1(C(=O)O)CC12c1ccccc1-c1ccccc12` (stereo not given), the activity change, negative = cytotoxicity is inactive: 12.3%.

Turning to `O=C(O)CCCOc1ccc(Cl)cc1Cl`, the activity change, negative = cytotoxicity is inactive: 1.24%.

Regarding `O=C(NN=Cc1ccc(N(CCCl)CCCl)cc1Cl)c1cccnc1`, the activity change, negative = cytotoxicity is inactive: 4.39%.

Take `CN1[C@@H]2CC[C@H]1CC(OC(=O)C1C=Nc3ccccc31)C2` (stereo not given in full): the activity change, negative = cytotoxicity was inactive: 8.32%.

Turning to `C[C@@H]1CN(C2CCC(C#N)(c3ccc(F)cc3)CC2)CC[C@]1(C(=O)O)c1ccccc1` (stereo not given in full), the activity change, negative = cytotoxicity was inactive: 9.51%.

Turning to `CCC(=O)O[C@H]1CC[C@H]2[C@@H]3CCC4=CC(=O)CC[C@]4(C)[C@H]3CC[C@]12C`, the activity change, negative = cytotoxicity was inactive: 10.4%.

Regarding `Fc1ccc(C(OCCN2CCCC2)c2ccc(F)cc2)cc1`, the activity change, negative = cytotoxicity is inactive: -7.97%.

For `O=C(NN=Cc1ccc(N(CCCl)CCCl)cc1)c1cccnc1`, the activity change, negative = cytotoxicity was inactive: 6.26%.

Regarding `COc1ccc(CCNCc2cccn2C)cc1`, the activity change, negative = cytotoxicity is inactive: 4.44%.

Turning to `O=C(N/N=C/C1C(=O)NC(=S)N(c2ccccc2)C1=O)c1cc(Br)c(O)c(Br)c1` (stereo not given), the activity change, negative = cytotoxicity is inactive: 2.36%.

Take `COc1ccc(OC)c([C@@H](O)[C@H](C)NC(C)(C)C)c1`: the activity change, negative = cytotoxicity is inactive: 13.9%.

Turning to `COC(=O)C1=C(c2ccc(F)cc2OCc2ccccc2)C[C@@H]2CC[C@H]1N2C(=O)NC(C)C`, the activity change, negative = cytotoxicity is inactive: 0.414%.

For the molecule `C[N+]1(C)[C@@H]2CC[C@H]1CC(OC(=O)C(CO)c1ccccc1)C2` (stereo not given in full), the activity change, negative = cytotoxicity is inactive: 24.1%.

With `O=C(N/N=C/c1c(O)n(C2CCCCC2)c(=S)[nH]c1=O)c1ccccc1O`, the activity change, negative = cytotoxicity is inactive: -0.827%.

Take `CC(C)c1c(CN(C)C(C)Cc2ccccc2)n(C)n(-c2ccccc2)c1=O` (stereo not given): the activity change, negative = cytotoxicity is inactive: 2.33%.

Take `CCN(CC)CCCN=Cc1c(O)n(Cc2ccc(F)cc2)c(=O)[nH]c1=O`: the activity change, negative = cytotoxicity was inactive: 3.66%.

Regarding `N[C@@H](Cc1ccc(N(CCCl)CCCl)cc1)C(=O)O`, the activity change, negative = cytotoxicity is inactive: 0.381%.

For `O=c1[nH]c(CN2CC=C(c3ccccc3)CC2)nc2cc(C(F)(F)F)ccc12`, the activity change, negative = cytotoxicity was inactive: 5.12%.

With `COc1cccc(-c2nc3ccc(N4CCN(C)CC4)cc3[nH]2)c1`, the activity change, negative = cytotoxicity is inactive: 4.33%.

Take `C#C[C@]1(O)CC[C@H]2[C@@H]3CCC4=CC(=O)CC[C@]4(C)[C@H]3CC[C@@]21C`: the activity change, negative = cytotoxicity was inactive: 10.7%.

In the case of `Cc1cc(C)n(-c2ccc(NN=C(C#N)C#N)cc2)n1`, the activity change, negative = cytotoxicity was inactive: -0.783%.

Consider `Cc1nc2ccccc2n1C1CCN(Cc2nnnn2CCc2ccccc2)CC1`, for which the activity change, negative = cytotoxicity is inactive: 11.4%.

As for `O=c1cccc2n1CC1CC2CN(Cc2c(F)cccc2Cl)C1` (stereo not given), the activity change, negative = cytotoxicity is inactive: 7.42%.

On to `Cc1cccc(CN2CCN(Cc3ccc(Cl)cc3)CC2)c1`, for which the activity change, negative = cytotoxicity is inactive: 25.9%.

For `CC(=O)N(C)C1=Nc2ccc(Cl)cc2C(c2ccccc2)=[N+]([O-])C1`, the activity change, negative = cytotoxicity is inactive: 5.7%.

As to `CCN1C[C@]2(COC)CC[C@H](OC)[C@@]34C1[C@]1(OCO[C@@]15C[C@H](OC)[C@H]1C[C@@H]3[C@@H]5[C@H]1OC)[C@@H](O)[C@H]24`, the activity change, negative = cytotoxicity is inactive: -1.87%.
